# Some of the results follow. Single values of this set are uncertain.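 Tm was set to 64 °C where no melting was found, and many curves are irregular.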
# Sequences of proteins named here, by UniProt entry; tags and fusion partners are left off. A change or cut given only in a name is not applied to a line headed by its entry.
# UniProt A4D1E9: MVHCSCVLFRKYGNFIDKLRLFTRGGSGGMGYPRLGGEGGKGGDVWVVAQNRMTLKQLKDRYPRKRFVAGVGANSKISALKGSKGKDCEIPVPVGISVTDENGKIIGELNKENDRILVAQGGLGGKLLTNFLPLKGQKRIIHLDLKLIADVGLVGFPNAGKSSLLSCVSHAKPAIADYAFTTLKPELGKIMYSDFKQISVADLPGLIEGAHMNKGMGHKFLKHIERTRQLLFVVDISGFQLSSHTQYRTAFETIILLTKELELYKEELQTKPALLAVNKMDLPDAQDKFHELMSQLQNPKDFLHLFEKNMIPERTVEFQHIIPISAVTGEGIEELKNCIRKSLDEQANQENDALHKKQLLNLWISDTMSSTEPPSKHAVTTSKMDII
# UniProt A2RTX5: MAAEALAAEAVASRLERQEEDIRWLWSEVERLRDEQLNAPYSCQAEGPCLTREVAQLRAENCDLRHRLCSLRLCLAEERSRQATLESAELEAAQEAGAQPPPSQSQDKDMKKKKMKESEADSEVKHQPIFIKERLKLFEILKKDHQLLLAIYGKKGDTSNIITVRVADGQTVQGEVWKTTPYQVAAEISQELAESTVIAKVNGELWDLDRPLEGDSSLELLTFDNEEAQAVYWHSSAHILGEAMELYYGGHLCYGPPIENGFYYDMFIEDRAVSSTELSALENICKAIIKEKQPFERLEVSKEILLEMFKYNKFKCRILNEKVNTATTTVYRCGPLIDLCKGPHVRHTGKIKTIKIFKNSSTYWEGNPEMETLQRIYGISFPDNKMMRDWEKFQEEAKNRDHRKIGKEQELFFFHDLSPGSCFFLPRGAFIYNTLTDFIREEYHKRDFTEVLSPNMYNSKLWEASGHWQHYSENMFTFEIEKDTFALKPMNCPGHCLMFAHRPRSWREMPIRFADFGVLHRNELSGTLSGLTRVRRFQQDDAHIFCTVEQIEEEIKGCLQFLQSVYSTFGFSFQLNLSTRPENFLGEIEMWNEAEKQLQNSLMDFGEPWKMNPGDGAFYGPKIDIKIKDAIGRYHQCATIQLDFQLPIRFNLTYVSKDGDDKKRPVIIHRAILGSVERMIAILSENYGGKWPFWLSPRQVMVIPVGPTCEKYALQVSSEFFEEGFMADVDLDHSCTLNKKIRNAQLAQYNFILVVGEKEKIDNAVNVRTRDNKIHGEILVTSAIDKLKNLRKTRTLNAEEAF
# UniProt A0PJW6: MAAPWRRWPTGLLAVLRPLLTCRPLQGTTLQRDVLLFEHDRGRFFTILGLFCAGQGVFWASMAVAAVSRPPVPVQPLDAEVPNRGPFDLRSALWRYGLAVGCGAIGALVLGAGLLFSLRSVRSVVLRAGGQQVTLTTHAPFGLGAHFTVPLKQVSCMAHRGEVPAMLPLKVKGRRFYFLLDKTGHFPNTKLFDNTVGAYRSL
# UniProt A0A096LP01: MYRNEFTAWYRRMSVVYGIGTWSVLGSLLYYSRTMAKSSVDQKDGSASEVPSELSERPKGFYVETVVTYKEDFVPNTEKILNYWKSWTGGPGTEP
# UniProt A0AV96: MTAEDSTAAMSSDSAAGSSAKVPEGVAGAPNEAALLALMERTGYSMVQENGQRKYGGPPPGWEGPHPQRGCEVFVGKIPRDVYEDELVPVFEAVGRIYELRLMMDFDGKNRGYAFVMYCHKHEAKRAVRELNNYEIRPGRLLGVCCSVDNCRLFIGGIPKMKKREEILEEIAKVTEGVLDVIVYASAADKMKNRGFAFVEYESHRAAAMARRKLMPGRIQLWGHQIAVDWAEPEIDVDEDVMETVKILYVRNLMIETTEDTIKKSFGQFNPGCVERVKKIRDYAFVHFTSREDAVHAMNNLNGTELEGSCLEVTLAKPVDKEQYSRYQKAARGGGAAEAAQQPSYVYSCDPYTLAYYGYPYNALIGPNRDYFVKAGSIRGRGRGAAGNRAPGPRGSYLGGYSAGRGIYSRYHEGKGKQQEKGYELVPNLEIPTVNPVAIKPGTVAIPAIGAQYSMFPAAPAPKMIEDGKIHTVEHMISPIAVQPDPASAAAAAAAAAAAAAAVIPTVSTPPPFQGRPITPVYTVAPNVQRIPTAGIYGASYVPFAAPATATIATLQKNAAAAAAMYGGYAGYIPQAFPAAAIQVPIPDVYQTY
# UniProt A0AVT1: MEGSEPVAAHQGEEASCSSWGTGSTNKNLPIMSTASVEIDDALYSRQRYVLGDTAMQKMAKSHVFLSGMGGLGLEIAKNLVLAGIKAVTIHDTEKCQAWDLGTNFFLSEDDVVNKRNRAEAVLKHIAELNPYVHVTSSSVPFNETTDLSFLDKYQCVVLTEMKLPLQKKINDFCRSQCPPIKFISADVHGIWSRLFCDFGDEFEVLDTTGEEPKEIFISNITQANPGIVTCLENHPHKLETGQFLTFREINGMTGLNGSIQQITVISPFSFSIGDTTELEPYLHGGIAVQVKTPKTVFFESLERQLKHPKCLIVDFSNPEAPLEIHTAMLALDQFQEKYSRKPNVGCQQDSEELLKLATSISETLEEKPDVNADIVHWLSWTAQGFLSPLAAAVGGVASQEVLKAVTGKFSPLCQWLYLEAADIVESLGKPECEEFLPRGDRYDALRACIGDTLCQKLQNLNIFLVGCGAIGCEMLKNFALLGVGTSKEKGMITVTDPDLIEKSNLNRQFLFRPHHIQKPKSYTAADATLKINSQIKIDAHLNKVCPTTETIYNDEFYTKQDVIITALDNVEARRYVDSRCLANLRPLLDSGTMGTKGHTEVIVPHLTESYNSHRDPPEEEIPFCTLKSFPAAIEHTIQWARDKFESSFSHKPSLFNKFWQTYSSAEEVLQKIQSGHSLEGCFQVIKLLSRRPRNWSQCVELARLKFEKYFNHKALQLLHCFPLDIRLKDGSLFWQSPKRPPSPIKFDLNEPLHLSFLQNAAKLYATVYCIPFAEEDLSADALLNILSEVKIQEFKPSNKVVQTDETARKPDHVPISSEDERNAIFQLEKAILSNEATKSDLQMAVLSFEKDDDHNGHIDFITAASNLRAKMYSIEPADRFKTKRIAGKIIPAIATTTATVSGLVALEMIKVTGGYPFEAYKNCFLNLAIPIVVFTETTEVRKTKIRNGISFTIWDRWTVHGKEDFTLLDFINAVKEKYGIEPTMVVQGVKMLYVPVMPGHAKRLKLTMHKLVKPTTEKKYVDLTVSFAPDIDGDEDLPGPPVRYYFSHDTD
# UniProt A0PK00: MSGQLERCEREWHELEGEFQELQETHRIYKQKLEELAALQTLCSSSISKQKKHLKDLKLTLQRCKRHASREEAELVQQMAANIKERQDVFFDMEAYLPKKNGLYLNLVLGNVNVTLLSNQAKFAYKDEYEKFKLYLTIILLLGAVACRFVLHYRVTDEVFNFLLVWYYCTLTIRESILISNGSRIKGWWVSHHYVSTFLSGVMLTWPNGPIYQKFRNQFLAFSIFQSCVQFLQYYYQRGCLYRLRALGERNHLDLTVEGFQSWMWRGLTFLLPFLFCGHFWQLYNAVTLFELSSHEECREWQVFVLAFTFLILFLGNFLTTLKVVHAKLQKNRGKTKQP
# UniProt A1L390: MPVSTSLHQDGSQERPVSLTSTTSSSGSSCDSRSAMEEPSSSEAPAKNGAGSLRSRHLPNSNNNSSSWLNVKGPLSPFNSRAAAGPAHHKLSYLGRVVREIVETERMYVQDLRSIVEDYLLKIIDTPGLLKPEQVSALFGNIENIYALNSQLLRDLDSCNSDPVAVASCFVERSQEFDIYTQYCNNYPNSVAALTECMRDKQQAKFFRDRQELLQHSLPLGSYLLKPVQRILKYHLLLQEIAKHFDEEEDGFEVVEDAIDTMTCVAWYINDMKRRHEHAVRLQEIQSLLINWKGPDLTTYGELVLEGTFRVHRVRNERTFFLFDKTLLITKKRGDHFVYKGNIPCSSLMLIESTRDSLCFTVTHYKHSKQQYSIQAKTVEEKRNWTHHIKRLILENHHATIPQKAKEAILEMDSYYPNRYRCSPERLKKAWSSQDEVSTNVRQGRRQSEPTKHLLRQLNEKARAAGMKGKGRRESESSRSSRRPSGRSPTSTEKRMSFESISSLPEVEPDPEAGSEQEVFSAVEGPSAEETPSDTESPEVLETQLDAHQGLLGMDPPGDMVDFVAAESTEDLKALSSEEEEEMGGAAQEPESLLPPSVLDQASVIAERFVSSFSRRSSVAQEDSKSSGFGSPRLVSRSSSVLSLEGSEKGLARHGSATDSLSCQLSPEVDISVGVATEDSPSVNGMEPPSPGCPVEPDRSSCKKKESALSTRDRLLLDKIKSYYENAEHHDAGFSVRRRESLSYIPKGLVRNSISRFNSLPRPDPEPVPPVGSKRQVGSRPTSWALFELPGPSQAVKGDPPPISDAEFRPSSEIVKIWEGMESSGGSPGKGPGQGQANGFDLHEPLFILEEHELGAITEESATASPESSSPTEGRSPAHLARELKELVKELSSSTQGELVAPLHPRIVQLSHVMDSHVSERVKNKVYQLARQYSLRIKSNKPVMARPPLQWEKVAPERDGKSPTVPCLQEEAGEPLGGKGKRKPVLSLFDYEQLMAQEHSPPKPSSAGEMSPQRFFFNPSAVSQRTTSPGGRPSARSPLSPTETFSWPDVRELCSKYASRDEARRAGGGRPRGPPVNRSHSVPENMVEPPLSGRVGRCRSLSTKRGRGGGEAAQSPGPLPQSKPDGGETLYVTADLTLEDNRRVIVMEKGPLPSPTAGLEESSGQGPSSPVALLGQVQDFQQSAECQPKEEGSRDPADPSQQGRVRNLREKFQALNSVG
# UniProt A3KMH1: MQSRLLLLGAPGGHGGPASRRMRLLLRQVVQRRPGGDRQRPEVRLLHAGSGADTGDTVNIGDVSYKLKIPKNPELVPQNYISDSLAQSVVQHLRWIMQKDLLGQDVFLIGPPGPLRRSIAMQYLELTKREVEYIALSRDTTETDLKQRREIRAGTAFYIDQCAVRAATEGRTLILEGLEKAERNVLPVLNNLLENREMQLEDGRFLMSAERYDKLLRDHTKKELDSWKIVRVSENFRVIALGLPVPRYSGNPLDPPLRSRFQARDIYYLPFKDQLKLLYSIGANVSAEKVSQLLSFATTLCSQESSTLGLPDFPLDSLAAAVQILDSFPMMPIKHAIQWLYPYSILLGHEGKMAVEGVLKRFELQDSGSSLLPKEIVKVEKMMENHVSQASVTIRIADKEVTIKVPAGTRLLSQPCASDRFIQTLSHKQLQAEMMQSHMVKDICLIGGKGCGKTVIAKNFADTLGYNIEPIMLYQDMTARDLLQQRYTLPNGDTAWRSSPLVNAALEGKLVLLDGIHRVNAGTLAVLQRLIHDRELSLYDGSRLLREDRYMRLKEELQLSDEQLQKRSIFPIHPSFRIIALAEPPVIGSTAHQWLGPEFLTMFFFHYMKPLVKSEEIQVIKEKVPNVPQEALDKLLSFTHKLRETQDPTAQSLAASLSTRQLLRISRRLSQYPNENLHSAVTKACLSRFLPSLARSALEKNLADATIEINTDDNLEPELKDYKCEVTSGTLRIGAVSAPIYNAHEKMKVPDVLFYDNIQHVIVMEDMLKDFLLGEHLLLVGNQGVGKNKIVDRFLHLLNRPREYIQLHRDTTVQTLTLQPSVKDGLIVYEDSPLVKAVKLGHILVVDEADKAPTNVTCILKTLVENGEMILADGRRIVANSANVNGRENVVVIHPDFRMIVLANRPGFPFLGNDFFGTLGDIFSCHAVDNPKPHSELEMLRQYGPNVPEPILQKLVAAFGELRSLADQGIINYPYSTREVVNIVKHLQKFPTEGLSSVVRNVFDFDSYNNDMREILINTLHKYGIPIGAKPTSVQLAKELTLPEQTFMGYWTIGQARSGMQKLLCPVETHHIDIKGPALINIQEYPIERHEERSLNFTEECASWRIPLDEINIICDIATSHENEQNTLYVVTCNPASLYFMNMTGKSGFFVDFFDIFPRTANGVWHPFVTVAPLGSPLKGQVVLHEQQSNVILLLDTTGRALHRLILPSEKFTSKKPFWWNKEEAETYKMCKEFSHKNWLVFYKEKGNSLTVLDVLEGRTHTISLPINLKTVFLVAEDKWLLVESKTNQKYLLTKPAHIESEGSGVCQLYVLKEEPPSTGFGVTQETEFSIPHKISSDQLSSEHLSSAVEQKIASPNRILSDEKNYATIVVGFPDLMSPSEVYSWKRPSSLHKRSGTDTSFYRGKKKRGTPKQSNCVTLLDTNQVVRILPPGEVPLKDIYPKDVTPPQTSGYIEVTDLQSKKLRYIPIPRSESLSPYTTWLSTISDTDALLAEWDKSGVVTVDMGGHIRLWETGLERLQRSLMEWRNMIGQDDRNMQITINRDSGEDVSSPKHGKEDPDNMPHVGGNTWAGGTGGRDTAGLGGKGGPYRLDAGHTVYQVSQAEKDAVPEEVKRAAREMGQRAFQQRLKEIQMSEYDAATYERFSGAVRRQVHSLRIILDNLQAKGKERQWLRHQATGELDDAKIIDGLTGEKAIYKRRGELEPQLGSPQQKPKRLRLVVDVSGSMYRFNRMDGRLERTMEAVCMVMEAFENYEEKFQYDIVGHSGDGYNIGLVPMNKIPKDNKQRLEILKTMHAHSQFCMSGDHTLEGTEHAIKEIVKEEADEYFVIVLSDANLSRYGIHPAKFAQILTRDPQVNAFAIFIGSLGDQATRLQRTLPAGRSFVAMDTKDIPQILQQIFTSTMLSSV
# How the values were obtained:
# Assay in all cases: melting temperature shift (DMSO Tm minus MBE1-treated Tm) in cellular thermal proteome profiling; higher = less thermal stabilization by MBE1 (negative = stabilized by MBE1)
# [1] = target: ARHGAP10 (UniProt A1A4S6); settings: A375
# [2] = target: ESYT2 (UniProt A0FGR8); settings: A375
# [3] = target: GTPBP10 (UniProt A4D1E9); settings: A375
# [4] = target: ILVBL (UniProt A1L0T0); settings: A375
# [5] = target: NBAS (UniProt A2RRP1); settings: A375
# [6] = target: SBNO1 (UniProt A3KN83); settings: A375
# [7] = target: SH3PXD2B (UniProt A1X283); settings: A375
# [8] = target: SHTN1 (UniProt A0MZ66); settings: A375
# [9] = target: TARSL2 (UniProt A2RTX5); settings: A375; MBE1 concentration: 100 nM
# [10] = target: TMEM223 (UniProt A0PJW6); settings: A375
# [11] = target: TYW5 (UniProt A2RUC4); settings: A375
# [12] = target: UHRF1BP1L (UniProt A0JNW5); settings: A375
# [13] = target: UniProt A0A096LP01; settings: A375
# [14] = target: UniProt A0AV96; settings: A375; MBE1 concentration: 100 nM
# [15] = target: UniProt A0AVF1; settings: A375
# [16] = target: UniProt A0AVT1; settings: A375
# [17] = target: UniProt A0PK00; settings: A375
# [18] = target: UniProt A1L170; settings: A375
# [19] = target: UniProt A1L390; settings: A375
# [20] = target: UniProt A4D1P6; settings: A375
# [21] = target: UniProt A4D1U4; settings: A375
# [22] = target: UniProt A5A3E0; settings: A375
# [23] = target: VWA8 (UniProt A3KMH1); settings: A375
compound,measurement,setting,value
CCc1cnccc1C(=O)Nc1cc2c(cc1F)NC(=O)CC2,melting temperature shift,[1]; MBE1 concentration: 100 nM,0.58 °C
same,melting temperature shift,[1]; MBE1 concentration: 1 uM,0.281 °C
same,melting temperature shift,[2]; MBE1 concentration: 100 nM,1.06 °C
same,melting temperature shift,[2]; MBE1 concentration: 1 uM,0.0855 °C
same,melting temperature shift,[3]; MBE1 concentration: 100 nM,-0.415 °C
same,melting temperature shift,[3]; MBE1 concentration: 1 uM,0.0128 °C
same,melting temperature shift,[4]; MBE1 concentration: 100 nM,0.543 °C
same,melting temperature shift,[4]; MBE1 concentration: 1 uM,0.421 °C
same,melting temperature shift,[5]; MBE1 concentration: 100 nM,-1.13 °C
same,melting temperature shift,[5]; MBE1 concentration: 1 uM,-0.725 °C
same,melting temperature shift,[6]; MBE1 concentration: 100 nM,0.702 °C
same,melting temperature shift,[6]; MBE1 concentration: 1 uM,-0.0183 °C
same,melting temperature shift,[7]; MBE1 concentration: 100 nM,-0.583 °C
same,melting temperature shift,[7]; MBE1 concentration: 1 uM,-0.367 °C
same,melting temperature shift,[8]; MBE1 concentration: 100 nM,0.739 °C
same,melting temperature shift,[8]; MBE1 concentration: 1 uM,-0.959 °C
same,melting temperature shift,[9],0.543 °C
same,melting temperature shift,[10]; MBE1 concentration: 100 nM,-0.731 °C
same,melting temperature shift,[10]; MBE1 concentration: 1 uM,0.429 °C
same,melting temperature shift,[11]; MBE1 concentration: 100 nM,-0.154 °C
same,melting temperature shift,[11]; MBE1 concentration: 1 uM,0.0872 °C
same,melting temperature shift,[12]; MBE1 concentration: 100 nM,-0.51 °C
same,melting temperature shift,[12]; MBE1 concentration: 1 uM,0.469 °C
same,melting temperature shift,[13]; MBE1 concentration: 100 nM,-0.946 °C
same,melting temperature shift,[13]; MBE1 concentration: 1 uM,-0.469 °C
same,melting temperature shift,[14],-0.932 °C
same,melting temperature shift,[15]; MBE1 concentration: 100 nM,-1.34 °C
same,melting temperature shift,[15]; MBE1 concentration: 1 uM,-0.456 °C
same,melting temperature shift,[16]; MBE1 concentration: 100 nM,0.757 °C
same,melting temperature shift,[16]; MBE1 concentration: 1 uM,-0.00611 °C
same,melting temperature shift,[17]; MBE1 concentration: 100 nM,-0.561 °C
same,melting temperature shift,[17]; MBE1 concentration: 1 uM,0.134 °C
same,melting temperature shift,[18]; MBE1 concentration: 100 nM,0.402 °C
same,melting temperature shift,[18]; MBE1 concentration: 1 uM,0.134 °C
same,melting temperature shift,[19]; MBE1 concentration: 100 nM,-0.136 °C
same,melting temperature shift,[19]; MBE1 concentration: 1 uM,-1.19 °C
same,melting temperature shift,[20]; MBE1 concentration: 100 nM,-1.13 °C
same,melting temperature shift,[20]; MBE1 concentration: 1 uM,-0.946 °C
same,melting temperature shift,[21]; MBE1 concentration: 100 nM,-0.691 °C
same,melting temperature shift,[21]; MBE1 concentration: 1 uM,0.415 °C
same,melting temperature shift,[22]; MBE1 concentration: 100 nM,-0.00611 °C
same,melting temperature shift,[22]; MBE1 concentration: 1 uM,-5.79 °C
same,melting temperature shift,[23]; MBE1 concentration: 100 nM,-0.621 °C
same,melting temperature shift,[23]; MBE1 concentration: 1 uM,-1.27 °C

# Rewritten bar-delimited: entries from further up.
compound | measurement | setting | value
CCc1cnccc1C(=O)Nc1cc2c(cc1F)NC(=O)CC2 | melting temperature shift | [13]; MBE1 concentration: 1 uM | -0.469 °C
same | melting temperature shift | [14] | -0.932 °C

# — the supplement of paper PMC12595434, “Development of retinoid nuclear receptor pathway antagonists through targeting aldehyde dehydrogenase 1A3” (iScience, 2025)
